Data published in PMC12524789, “The Interplay Between CB2 and NMDA Receptors in Parkinson’s Disease” (International Journal of Molecular Sciences, 2025).
No constants are given. Whether binding was seen depends on the method and setting. In cells and extracts the contact can be indirect. Some entries that bind do so weakly or less than the wild type.

By UniProt entry, the sequences of proteins in these tests, tags left out.
UniProt P34972: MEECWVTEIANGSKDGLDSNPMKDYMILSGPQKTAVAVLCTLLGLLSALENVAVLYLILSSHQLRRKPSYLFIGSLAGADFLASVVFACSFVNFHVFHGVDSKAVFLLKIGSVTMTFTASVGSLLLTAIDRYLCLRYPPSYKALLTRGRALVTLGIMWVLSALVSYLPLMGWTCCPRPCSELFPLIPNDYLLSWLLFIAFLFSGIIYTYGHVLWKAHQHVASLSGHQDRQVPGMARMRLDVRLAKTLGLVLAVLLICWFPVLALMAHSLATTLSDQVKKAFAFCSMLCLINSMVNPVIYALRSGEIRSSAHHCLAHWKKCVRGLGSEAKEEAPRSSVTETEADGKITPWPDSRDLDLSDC
UniProt Q92847: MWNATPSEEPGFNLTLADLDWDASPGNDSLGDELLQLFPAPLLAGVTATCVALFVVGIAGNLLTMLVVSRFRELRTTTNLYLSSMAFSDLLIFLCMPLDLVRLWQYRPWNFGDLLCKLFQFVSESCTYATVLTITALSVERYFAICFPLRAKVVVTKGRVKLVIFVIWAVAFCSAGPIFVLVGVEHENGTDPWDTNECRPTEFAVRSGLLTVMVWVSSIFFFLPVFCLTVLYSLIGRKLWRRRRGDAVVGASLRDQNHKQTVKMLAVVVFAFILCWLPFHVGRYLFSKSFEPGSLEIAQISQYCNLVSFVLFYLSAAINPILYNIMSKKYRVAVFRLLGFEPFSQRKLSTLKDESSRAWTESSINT

Assays:
[1] = target: NMDA receptor of NR1A fused to Renilla luciferase (NR1A-Rluc) co-expressed with NR2B (human) (UniProt Q05586+Q13224); experiment: FRET or BRET; BRET saturation in living HEK-293T cells: constant cDNA for NR1A-Rluc (0.5 µg) and NR2B (0.3 µg), increasing cDNA for CB2R-YFP (0 to 2.5 µg) or GHSR1A-YFP (0 to 10 µg); vehicle-treated; 5 µM coelenterazine H, HBSS pH 7.4
[2] = target: Cannabinoid receptor 2 fused to the yellow fluorescent protein (CB2R-YFP) (human) (UniProt P34972); experiment: condition: only co-treatment with 15 µM NMDA, NR1 and NR2B co-expressed; FRET or BRET; β-arrestin II recruitment by BRET as a5, with 100 nM JWH-133 and 15 µM NMDA together
[3] = target: Cannabinoid receptor 2 fused to the yellow fluorescent protein (CB2R-YFP) (human) (UniProt P34972); experiment: FRET or BRET; β-arrestin II recruitment by BRET in HEK-293T cells with CB2R-YFP, NR1, NR2B and β-arrestin II-Rluc; 100 nM JWH-133; NMDA alone induced no response
[4] = target: Cannabinoid receptor 2 fused to the yellow fluorescent protein (CB2R-YFP) (human) (UniProt P34972); experiment: condition: only cells treated with 10 µg/L α-syn fibrils for 48 h; FRET or BRET; β-arrestin II recruitment by BRET as a3 (100 nM JWH-133), in cells treated with α-syn fibrils for 48 h
[5] = target: Cannabinoid receptor 2 fused to the yellow fluorescent protein (CB2R-YFP) (human) (UniProt P34972); experiment: condition: only cells treated with 10 µg/L α-syn fibrils for 48 h, NR1 and NR2B co-expressed; FRET or BRET; β-arrestin II recruitment by BRET as a5 (100 nM JWH-133), in cells treated with α-syn fibrils for 48 h
[6] = target: Cannabinoid receptor 2 fused to the yellow fluorescent protein (CB2R-YFP) (human) (UniProt P34972); experiment: FRET or BRET; β-arrestin II recruitment by BRET in HEK-293T cells with CB2R-YFP (1.2 µg cDNA) and β-arrestin II-Rluc (0.4 µg cDNA); 100 nM JWH-133; pre-treatment with 1 µM SR144528 counteracted the signal

binding [1]	binding [2]	binding [3]	binding [4]	binding [5]	binding [6]	Substance
no binding						Ghrelin receptor GHSR1A fused to the yellow fluorescent protein (GHSR1A-YFP) (from UniProt Q92847 1-366)
	no binding	binds	no binding	no binding	binds	β-arrestin II fused to Renilla luciferase (β-arrestin II-Rluc) (from UniProt P32121 1-409)
